Experimental data: PubChem BioAssay AID1671195 (Yale University, 2021)
The deposit covers about 22,000 reagents; this is a random part of them. About 1,510 of them (6.9%) were called active. 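Active includes knockdowns raising or lowering LDL uptake; positive z-scores mean more uptake, negative mean less.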 A number with no mark means an inactive call.

Test: 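Regulators of LDL receptor activity judged by labelled LDL uptake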 (primary screen)
System: human Huh7 hepatoma cells
Knock-down reagent: siRNA pool against human genes, 18 nM
Timing: about 2 to 2.5 days of knockdown, then 8 h LDL uptake
Challenge: DiI-labelled LDL at 30 µg/ml for 8 h, in lipoprotein-deficient serum medium
Measured: 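Fluorescent LDL signal imaged in cells, scaled to the plate median, robust z-score for each replicate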
Reading the numbers: robust z-score: higher = more LDL uptake after knockdown
Hit rule: 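a gene counts as active if at least two replicate z-scores exceed ±2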

TP53BP2: robust z-score, replicate 1 = -0.567; robust z-score, replicate 2 = -0.363; robust z-score, replicate 3 = -0.717
INPP5D: robust z-score, replicate 1 = -1.18; robust z-score, replicate 2 = -1.37; robust z-score, replicate 3 = -1.25
SRA1: robust z-score, replicate 1 = 0.0376; robust z-score, replicate 2 = -0.0472; robust z-score, replicate 3 = -0.884
TRAPPC1: robust z-score, replicate 1 = 0.614; robust z-score, replicate 2 = 0.361; robust z-score, replicate 3 = 0.482
MFSD12: robust z-score, replicate 1 = -0.214; robust z-score, replicate 2 = -0.737; robust z-score, replicate 3 = -0.804
GSE1: robust z-score, replicate 1 = 1.41; robust z-score, replicate 2 = 0.165; robust z-score, replicate 3 = 0.301
UACA: robust z-score, replicate 1 = -0.019; robust z-score, replicate 2 = -1.04; robust z-score, replicate 3 = 0.26
FA2H: robust z-score, replicate 1 = -0.63; robust z-score, replicate 2 = -0.158; robust z-score, replicate 3 = -1.03
RPS26P29: robust z-score, replicate 1 = -1.42; robust z-score, replicate 2 = -0.792; robust z-score, replicate 3 = -0.9
C1QTNF5: robust z-score, replicate 1 = -0.378; robust z-score, replicate 2 = -0.974; robust z-score, replicate 3 = -0.766
NOLC1: robust z-score, replicate 1 = -0.924; robust z-score, replicate 2 = -0.256; robust z-score, replicate 3 = -0.216
IKBKE-AS1: robust z-score, replicate 1 = 1.42; robust z-score, replicate 2 = 1.44; robust z-score, replicate 3 = 1.08
LRFN5: robust z-score, replicate 1 = -1.07; robust z-score, replicate 2 = -1.01; robust z-score, replicate 3 = -0.222
CD160: robust z-score, replicate 1 = 1.15; robust z-score, replicate 2 = 0.0555; robust z-score, replicate 3 = 1.44
FCRLA: robust z-score, replicate 1 = -0.305; robust z-score, replicate 2 = -0.699; robust z-score, replicate 3 = -0.55
REM1: robust z-score, replicate 1 = -0.415; robust z-score, replicate 2 = 1.46; robust z-score, replicate 3 = 0.374
LOC440715 (retired record): robust z-score, replicate 1 = -1.02; robust z-score, replicate 2 = -0.479; robust z-score, replicate 3 = -0.926
MSL3B: robust z-score, replicate 1 = 1.34; robust z-score, replicate 2 = 0.356; robust z-score, replicate 3 = 0.191
GARRE1: robust z-score, replicate 1 = 1.69; robust z-score, replicate 2 = 1.39; robust z-score, replicate 3 = 0.0431
SURF6: robust z-score, replicate 1 = -1.56; robust z-score, replicate 2 = -1.57; robust z-score, replicate 3 = -1.63
HDGFL1: robust z-score, replicate 1 = 1.63; robust z-score, replicate 2 = 1.09; robust z-score, replicate 3 = 1.14
ZC3H11C: robust z-score, replicate 1 = 0.356; robust z-score, replicate 2 = -0.196; robust z-score, replicate 3 = -0.108
LOC285307 (retired record): robust z-score, replicate 1 = -0.892; robust z-score, replicate 2 = -0.876; robust z-score, replicate 3 = -0.563
WRAP53: robust z-score, replicate 1 = -1.34; robust z-score, replicate 2 = 0.46; robust z-score, replicate 3 = -0.597

Laid out differently: results already given
CD160
- robust z-score, replicate 1: 1.15
- robust z-score, replicate 2: 0.0555
- robust z-score, replicate 3: 1.44

FCRLA
- robust z-score, replicate 1: -0.305
- robust z-score, replicate 2: -0.699
- robust z-score, replicate 3: -0.55

REM1
- robust z-score, replicate 1: -0.415
- robust z-score, replicate 2: 1.46
- robust z-score, replicate 3: 0.374
